Measured values reported in PMC8636648.
Results are given in words; binding and its absence hold for the method and conditions named. In cells and extracts the contact can be indirect. Some results given as binding are weak or reduced against the parent protein; the word gives no strength.

Amino acid sequences for entries named in this document (tags omitted).
UniProt Q00987: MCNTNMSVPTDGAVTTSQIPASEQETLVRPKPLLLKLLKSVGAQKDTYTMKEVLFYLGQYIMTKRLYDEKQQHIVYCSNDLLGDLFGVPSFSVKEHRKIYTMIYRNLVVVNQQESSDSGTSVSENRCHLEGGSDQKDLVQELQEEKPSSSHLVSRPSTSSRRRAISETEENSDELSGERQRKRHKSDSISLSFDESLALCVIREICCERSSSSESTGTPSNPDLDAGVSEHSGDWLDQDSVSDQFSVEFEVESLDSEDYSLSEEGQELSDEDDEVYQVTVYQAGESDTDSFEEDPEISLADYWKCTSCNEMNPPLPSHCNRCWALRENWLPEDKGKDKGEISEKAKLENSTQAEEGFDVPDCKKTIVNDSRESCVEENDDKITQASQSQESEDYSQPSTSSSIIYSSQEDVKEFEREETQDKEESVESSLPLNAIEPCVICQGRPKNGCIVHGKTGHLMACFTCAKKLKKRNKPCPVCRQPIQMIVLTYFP

Molecular target: T1, RE1 silencing transcription factor (REST) (human (endogenous in pancreatic cancer cells)) (UniProt Q13127)
T1 sequence: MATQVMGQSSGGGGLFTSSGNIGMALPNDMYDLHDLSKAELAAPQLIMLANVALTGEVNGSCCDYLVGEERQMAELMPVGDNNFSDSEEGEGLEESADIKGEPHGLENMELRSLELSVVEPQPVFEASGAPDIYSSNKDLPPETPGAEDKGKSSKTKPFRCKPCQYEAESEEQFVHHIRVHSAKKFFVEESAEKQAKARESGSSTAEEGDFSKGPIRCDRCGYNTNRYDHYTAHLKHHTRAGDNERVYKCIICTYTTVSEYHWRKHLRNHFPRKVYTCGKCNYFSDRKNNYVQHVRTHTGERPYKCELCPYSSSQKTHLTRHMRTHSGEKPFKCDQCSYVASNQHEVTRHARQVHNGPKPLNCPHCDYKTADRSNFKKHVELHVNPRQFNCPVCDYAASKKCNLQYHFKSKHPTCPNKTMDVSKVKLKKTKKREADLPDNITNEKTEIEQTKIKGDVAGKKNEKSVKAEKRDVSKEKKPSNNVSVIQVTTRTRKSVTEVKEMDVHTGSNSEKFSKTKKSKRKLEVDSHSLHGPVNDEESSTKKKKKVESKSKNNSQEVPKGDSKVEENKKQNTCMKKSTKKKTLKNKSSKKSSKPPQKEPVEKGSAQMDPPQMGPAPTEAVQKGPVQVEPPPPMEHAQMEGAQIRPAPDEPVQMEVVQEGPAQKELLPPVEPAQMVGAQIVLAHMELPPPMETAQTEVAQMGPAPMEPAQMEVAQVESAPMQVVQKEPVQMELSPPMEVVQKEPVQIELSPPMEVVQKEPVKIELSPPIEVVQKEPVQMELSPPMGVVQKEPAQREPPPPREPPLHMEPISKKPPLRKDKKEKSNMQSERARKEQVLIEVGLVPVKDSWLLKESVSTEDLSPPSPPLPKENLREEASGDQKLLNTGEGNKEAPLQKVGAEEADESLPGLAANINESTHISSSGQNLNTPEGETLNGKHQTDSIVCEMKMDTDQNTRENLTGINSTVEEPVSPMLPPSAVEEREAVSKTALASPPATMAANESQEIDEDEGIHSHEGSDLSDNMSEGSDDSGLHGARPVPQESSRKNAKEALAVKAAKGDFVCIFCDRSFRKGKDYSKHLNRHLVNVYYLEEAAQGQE
Experiment: co-IP; anti-REST, anti-MDM2 or normal IgG; complex examined by western blot; PC cells with or without KCNK15-AS1 overexpression

- binding: binds
Substance: MDM2 proto-oncogene (MDM2) (from UniProt Q00987 1-491)
